Data source: PubChem BioAssay AID1224828 (NIAID, 2016)
Screen: 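Find genes required for NF-kappaB p65 moving into the nucleus after LPS in mouse macrophages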 (primary screen). System: mouse RAW264.7 G9 macrophage reporter cells (GFP-p65, Tnf promoter-mCherry). Reagent: siRNA pool against mouse genes, 100 nM. Time to read-out: 2 days siRNA transfection, then 40 min LPS before fixation. Conditions: LPS (Salmonella minnesota R595) at 10 ng/ml. Measured: 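Imaged p65 nuclear translocation ratio, normalised to the plate median, converted to robust z-scores and averaged across two replicates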. Reading the numbers: p65 translocation robust z-score: higher = more nuclear NF-kappaB p65 after LPS than the plate median; nuclear/cytoplasmic p65 ratio: higher = more nuclear NF-kappaB p65. Rule for the call: 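Active if robust z is above 3.3 (negative regulators) or below -1.56, the Tlr4 control median (positive regulators); activity score 50 or more; control wells not called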. Meaning of the calls: active = hit (p65 shift raised or lowered); inactive = no clear change.
This is a random part of about 17,000 reagents tested. In the full data, 762 (4.5%) got an active call. 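Active calls include both raised and lowered p65 entry, mostly lowered; wells with fewer than 50 cells lack a z-score.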 Raw values vary from plate to plate and are shown uncorrected.

For Arvcf, the entry reads p65 translocation robust z-score -0.05; nuclear/cytoplasmic p65 ratio, rep 1 = 1.61; nuclear/cytoplasmic p65 ratio, rep 2 = 1.61; low cell count flag enough cells to score; inactive.
With knock-down of A630023P12Rik the results were p65 translocation robust z-score 0.65; nuclear/cytoplasmic p65 ratio, rep 1 = 1.37; nuclear/cytoplasmic p65 ratio, rep 2 = 1.72; low cell count flag enough cells to score; inactive.
Ncoa1 scored p65 translocation robust z-score 0.27; nuclear/cytoplasmic p65 ratio, rep 1 = 1.45; nuclear/cytoplasmic p65 ratio, rep 2 = 1.4; low cell count flag enough cells to score; inactive.
Gabra2 showed p65 translocation robust z-score -0.55; nuclear/cytoplasmic p65 ratio, rep 1 = 1.33; nuclear/cytoplasmic p65 ratio, rep 2 = 1.33; low cell count flag enough cells to score; inactive.
Against Kynu the deposit lists nuclear/cytoplasmic p65 ratio, rep 1 = 1.51; nuclear/cytoplasmic p65 ratio, rep 2 = 1.43; low cell count flag fewer than 50 cells per well; well left out of scoring; inactive.
After knock-down of Phf11a the results were p65 translocation robust z-score -0.72; nuclear/cytoplasmic p65 ratio, rep 1 = 1.31; nuclear/cytoplasmic p65 ratio, rep 2 = 1.19; low cell count flag enough cells to score; inactive.
Against Dpf2 the deposit lists p65 translocation robust z-score -0.75; nuclear/cytoplasmic p65 ratio, rep 1 = 1.34; nuclear/cytoplasmic p65 ratio, rep 2 = 1.31; low cell count flag enough cells to score; inactive.
Knock-down of Gsta4 came out at: p65 translocation robust z-score -0.58; nuclear/cytoplasmic p65 ratio, rep 1 = 1.63; nuclear/cytoplasmic p65 ratio, rep 2 = 1.4; low cell count flag enough cells to score; inactive.
Eif2ak1 showed p65 translocation robust z-score -0.87; nuclear/cytoplasmic p65 ratio, rep 1 = 1.52; nuclear/cytoplasmic p65 ratio, rep 2 = 1.3; low cell count flag enough cells to score; inactive.
Knock-down of Mfge8 gave: p65 translocation robust z-score -0.22; nuclear/cytoplasmic p65 ratio, rep 1 = 1.74; nuclear/cytoplasmic p65 ratio, rep 2 = 1.47; low cell count flag enough cells to score; inactive.
Allc showed p65 translocation robust z-score -0.67; nuclear/cytoplasmic p65 ratio, rep 1 = 1.53; nuclear/cytoplasmic p65 ratio, rep 2 = 1.56; low cell count flag enough cells to score; inactive.
Catsperd scored nuclear/cytoplasmic p65 ratio, rep 1 = 1.24; nuclear/cytoplasmic p65 ratio, rep 2 = 1.21; low cell count flag fewer than 50 cells per well; well left out of scoring; inactive.
Knock-down of Nsmce1 resulted in: p65 translocation robust z-score 0.46; nuclear/cytoplasmic p65 ratio, rep 1 = 1.46; nuclear/cytoplasmic p65 ratio, rep 2 = 1.53; low cell count flag enough cells to score; inactive.
Against Fktn the deposit lists p65 translocation robust z-score 1.1; nuclear/cytoplasmic p65 ratio, rep 1 = 1.63; nuclear/cytoplasmic p65 ratio, rep 2 = 1.49; low cell count flag enough cells to score; inactive.

Single entries from above.
For “nuclear/cytoplasmic p65 ratio, rep 1”, Dpf2 is entered as 1.34
Under “low cell count flag”, A630023P12Rik is entered as enough cells to score
